Data as given in publication PMC9958131 (Nature Communications, 2023).
Values joined by “and” are separate entries in the source; they are usually repeats but may differ in a detail not shown here. Equal entries are not always repeated.

Tests used:
cathepsins B, S, and H = experiment: Proteolytic mapping (ProtMap) of native and citrullinated autoantigens by cathepsins B, S, and H with LFQ-MS; format: biochemical, human; conditions: for # changed residues: cathepsins BSH, pH 5.0, 4 h, 37 °C; for # changed peptides Cr (created) / # changed peptides De (destroyed): q <= 0.05 and >= twofold; for PAD2 change score (antigen processing change score): percentage of all ProtMap peptides significantly changed between native and PAD2-citrullinated samples; for PAD4 change score (antigen processing change score): percentage of all ProtMap peptides significantly changed between native and PAD4-citrullinated samples
Description: Prior to proteolytic mapping, citrullinated antigens were generated by incubating recombinant human antigens—hnRNP A2/B1 (RA33; custom-made as previously described by in ref. [24]), fibrinogen (Cayman Chemical), and vimentin (PeproTech)—with Sf9-purified peptidylarginine deiminase 2 or 4 (PAD2 or PAD4; Inova) at a 17:1 mass ratio in citrullination buffer (100 mM Tris, 1 mM DTT, 5 mM CaCl2, pH 7.5) for 4 h at 37 °C. Native antigens were diluted in the same buffer without PAD enzymes and without incubation at 37 °C to prevent degradation. Citrullination was confirmed by anti-peptidylcitrulline (clone F95, EMD Millipore) immunoblotting. Native and citrullinated antigen pools were split into four 15 µg replicates per condition before digestion (except hnRNP A2/B1, which was digested in double-volume replicates of three and later split into two each, total n = 6, prior to MS) by cathepsins B, S, and H (Millipore Sigma). Digestions were incubated in digestion buffer (citrate phosphate buffer, 4 mM DTT, 1 mM EDTA, pH 5.0) for 4 h at 37 °C. Fibrinogen and vimentin were digested at a 60:1 antigen:cathepsin mass ratio per cathepsin, and hnRNP A2/B1 was digested at a 150:1 antigen:cathepsin mass ratio per cathepsin to achieve full digestion of the protein. Digestion was confirmed by Coomassie Blue staining, and the remaining samples were centrifuged through a 10-kDa-spin filter (Microcon, Millipore) to remove undigested protein fragments. The resulting peptide repertoires were then analyzed by LFQ–MS.
Prior to MS, the samples were reduced and alkylated by incubating in 10 mM Tris (2-Carboxyethyl) phosphine hydrochloride (TCEP, v/v) and 50 mM chloroacetamide (CAA, v/v) for 1 h at room temperature. The samples were then desalted using C18 StageTips (3 M Empore) after acidifying with 1% trifluoroacetic acid (TFA). The peptide solution was vacuum-dried and stored at ‒80 °C. The peptide samples were analyzed on an Orbitrap Fusion Lumos Tribrid mass spectrometer interfaced with an Ultimate 3000 RS Autosampler nanoflow liquid chromatography system (Thermo Scientific). The dried peptides were reconstituted in 15 µL of 0.5% formic acid (FA) and then loaded onto a trap column (Acclaim™ PepMap™ 100 LC C18, 5 μm, 100 μm × 2 cm, Thermo Scientific) at a flow rate of 8 μL/min. Peptides were separated on an analytical column (Easy-Spray™ PepMap™ RSLC C18, 2 μm, 75 μm × 50 cm, Thermo Scientific) at a flow rate of 0.3 μL/min using a linear gradient with mobile phases consisting of 0.1% FA in water and in 95% acetonitrile (ACN) for 120 min. The mass spectrometer was operated in data-dependent acquisition (DDA) mode. The MS1 (precursor ions) scan range for a full survey scan was acquired from 300 to 1800 m/z in the top speed setting with a resolution of 120,000 at an m/z of 200. The AGC target for MS1 was set as 1 × 10^6, and the maximum injection time was 100 milliseconds. The most intense ions with charge states of 2–5 were isolated in a 3-s cycle, fragmented using higher-energy collisional dissociation (HCD) fragmentation with 32% normalized collision energy, and detected at a mass resolution of 50,000 at an m/z of 200. The AGC target for MS/MS (fragments) was set as 5 × 10^4, and the ion filling time was 100 milliseconds. The precursor isolation window was set to 1.6 m/z with a 0.4 m/z offset. The dynamic exclusion was set to 30 s, and singly charged ions were rejected. Internal calibration was carried out using the lock mass option (m/z 445.1200025) from ambient air[59]–[61].
Proteome Discoverer (version 2.4.1.15, Thermo Scientific) was used for the identification and quantitation of proteins. During MS/MS preprocessing, the top 10 peaks in each window of 100 m/z were selected for database search. […]

recombinant human PAD4 = experiment: Citrullination site mapping by mass spectrometry after PAD4 citrullination; format: biochemical; conditions: PAD4 condition; for citrullination (%): share of sequence citrullinated
recombinant human PAD2 = experiment: Citrullination site mapping by mass spectrometry after PAD2 citrullination; format: biochemical; conditions: PAD2 condition; for citrullination (%): share of sequence citrullinated

Molecule	changed peptides (%) Cr (created) (cathepsins B, S, and H; PAD2-citrullinated vs native) [%]	changed peptides (%) De (destroyed) (cathepsins B, S, and H; PAD2-citrullinated vs native) [%]	changed residues (%) (cathepsins B, S, and H; PAD2-citrullinated vs native)	# changed residues (cathepsins B, S, and H; PAD2-citrullinated vs native)	# changed peptides Cr (created) (cathepsins B, S, and H; PAD2-citrullinated vs native)	# changed peptides De (destroyed) (cathepsins B, S, and H; PAD2-citrullinated vs native)	changed peptides (%) Cr (created) (cathepsins B, S, and H; PAD4-citrullinated vs native) [%]	changed peptides (%) De (destroyed) (cathepsins B, S, and H; PAD4-citrullinated vs native) [%]	changed residues (%) (cathepsins B, S, and H; PAD4-citrullinated vs native)	# changed residues (cathepsins B, S, and H; PAD4-citrullinated vs native)	# changed peptides Cr (created) (cathepsins B, S, and H; PAD4-citrullinated vs native)	# changed peptides De (destroyed) (cathepsins B, S, and H; PAD4-citrullinated vs native)	# citrulline residues (recombinant human PAD4)	citrullination (%) (recombinant human PAD4)	# citrulline residues (recombinant human PAD2)	citrullination (%) (recombinant human PAD2)	PAD2 change score (antigen processing change score) (cathepsins B, S, and H)	PAD4 change score (antigen processing change score) (cathepsins B, S, and H)	also measured
Fibrinogen b: β chain of human fibrinogen, RA autoantigen; native or citrullinated by PAD2 or PAD4 (protein) MKRMVSWSFHKLKTMKHLLLLLLCVFLVKSQGVNDNEEGFFSARGHRPLDKKREEAPSLRPAPPPISGGGYRARPAKAAATQKKVERKAPDAGGCLHADPDLGVLCPTGCQLQEALLQQERPIRNSVDELNNNVEAVSQTSSSSFQYMYLLKDLWQKRQKQVKDNENVVNEYSSELEKHQLYIDETVNSNIPTNLRVLRSILENLRSKIQKLESDVSAQMEYCRTPCTVSCNIPVVSGKECEEIIRKGGETSEMYLIQPDSSVKPYRVYCDMNTENGGWTVIQNRQDGSVDFGRKWDPYKQGFGNVATNTDGKNYCGLPGEYWLGNDKISQLTRMGPTELLIEMEDWKGDKVKAHYGGFTVQNEANKYQISVNKYRGTAGNALMDGASQLMGENRTMTIHNGMFFSTYDRDNDGWLTSDPRKQCSKEDGGGWWYNRCHAANPNGRYYWGGQYTWDMAKHGTDDGVVWMNWKGSWYSMRKMSMKIRPFFPQQ	29.03	10.00	31.16	153.00	90	31	7.44	7.12	9.37	46.00	23	22	4	0.81	5	1.02	–	–	Change Score - PAD2 (cathepsins B, S, and H; Fig. 3e, native vs PAD2-citrullinated protein): 39.0323; Change Score - PAD4 (cathepsins B, S, and H; Fig. 3e, native vs PAD4-citrullinated protein): 14.5631; PAD2 change score (antigen processing change score) (cathepsins B, S, and H; listed as Fibrinogen β): 39.03 and 39.0323; PAD4 change score (antigen processing change score) (cathepsins B, S, and H; listed as Fibrinogen β): 14.56 and 14.5631
Fibrinogen g: γ chain of human fibrinogen; not directly citrullinated (protein) MSWSLHPRNLILYFYALLFLSSTCVAYVATRDNCCILDERFGSYCPTTCGIADFLSTYQTKVDKDLQSLEDILHQVENKTSEVKQLIKAIQLTYNPDESSKPNMIDAATLKSRKMLEEIMKYEASILTHDSSIRYLQEIYNSNNQKIVNLKEKVAQLEAQCQEPCKDTVQIHDITGKDCQDIANKGAKQSGLYFIKPLKANQQFLVYCEIDGSGNGWTVFQKRLDGSVDFKKNWIQYKEGFGHLSPTGTTEFWLGNEKIHLISTQSAIPYALRVELEDWNGRTSTADYAMFKVGPEADKYRLTYAYFAGGDAGDAFDGFDFGDDPSDKFFTSHNGMQFSTWDNDNDKFEGNCAEQDGSGWWMNKCHAGHLNGVYYQGGTYSKASTPNGYDNGIIWATWKTRWYSMKKTTMKIIPFNRLTIGEGQQHHLGGAKQVRPEHPAETEYDSLYPEDDL	33.58	0.00	26.27	122.00	89	0	0.00	0.00	4.86	22.00	0	0	0	0.00	0	0.00	33.58	0.00	PAD4 change score (antigen processing change score) (cathepsins B, S, and H; listed as Fibrinogen γ): 0; share of the sequence significantly changed in abundance by citrullination (cathepsins B, S, and H; range over PAD2 and PAD4 conditions): 5–26%
Fibrinogen a: α chain of human fibrinogen (Cayman Chemical), RA autoantigen; native or citrullinated by PAD2 or PAD4 (protein) MFSMRIVCLVLSVVGTAWTADSGEGDFLAEGGGVRGPRVVERHQSACKDSDWPFCSDEDWNYKCPSGCRMKGLIDEVNQDFTNRINKLKNSLFEYQKNNKDSHSLTTNIMEILRGDFSSANNRDNTYNRVSEDLRSRIEVLKRKVIEKVQHIQLLQKNVRAQLVDMKRLEVDIDIKIRSCRGSCSRALAREVDLKDYEDQQKQLEQVIAKDLLPSRDRQHLPLIKMKPVPDLVPGNFKSQLQKVPPEWKALTDMPQMRMELERPGGNEITRGGSTSYGTGSETESPRNPSSAGSWNSGSSGPGSTGNRNPGSSGTGGTATWKPGSSGPGSTGSWNSGSSGTGSTGNQNPGSPRPGSTGTWNPGSSERGSAGHWTSESSVSGSTGQWHSESGSFRPDSPGSGNARPNNPDWGTFEEVSGNVSPGTRREYHTEKLVTSKGDKELRTGKEKVTSGSTTTTRRSCSKTVTKTVIGPDGHKEVTKEVVTSEDGSDCPEAMDLGTL	35.80	20.46	24.36	211.00	203	116	18.10	9.68	22.17	192.00	101	54	12	1.39	12	1.39	56.26	27.78	–
